Experimental data published in article PMC8187744.
No constants are given. Whether binding was seen depends on the method and setting. Binding seen in cells or lysates may run through a third protein. Some results given as binding are weak or reduced against the parent protein; the word gives no strength.

Chains of the proteins cited; added tags and fusions are not shown. Lines headed by an entry give the natural chain unless they say otherwise; changes in a name come on top.
UniProt P31749: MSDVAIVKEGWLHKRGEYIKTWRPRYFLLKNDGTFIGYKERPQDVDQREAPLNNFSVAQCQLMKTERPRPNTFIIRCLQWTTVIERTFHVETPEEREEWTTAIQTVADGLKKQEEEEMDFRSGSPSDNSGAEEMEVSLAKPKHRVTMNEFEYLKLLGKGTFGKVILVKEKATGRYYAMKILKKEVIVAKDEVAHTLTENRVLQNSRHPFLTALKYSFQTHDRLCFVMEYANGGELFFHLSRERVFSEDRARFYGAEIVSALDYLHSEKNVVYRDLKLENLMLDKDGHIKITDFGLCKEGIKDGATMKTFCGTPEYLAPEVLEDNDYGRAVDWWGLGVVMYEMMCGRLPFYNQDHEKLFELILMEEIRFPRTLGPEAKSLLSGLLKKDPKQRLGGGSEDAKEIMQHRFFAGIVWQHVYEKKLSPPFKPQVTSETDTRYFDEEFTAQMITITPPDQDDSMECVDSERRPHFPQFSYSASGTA
UniProt O14744: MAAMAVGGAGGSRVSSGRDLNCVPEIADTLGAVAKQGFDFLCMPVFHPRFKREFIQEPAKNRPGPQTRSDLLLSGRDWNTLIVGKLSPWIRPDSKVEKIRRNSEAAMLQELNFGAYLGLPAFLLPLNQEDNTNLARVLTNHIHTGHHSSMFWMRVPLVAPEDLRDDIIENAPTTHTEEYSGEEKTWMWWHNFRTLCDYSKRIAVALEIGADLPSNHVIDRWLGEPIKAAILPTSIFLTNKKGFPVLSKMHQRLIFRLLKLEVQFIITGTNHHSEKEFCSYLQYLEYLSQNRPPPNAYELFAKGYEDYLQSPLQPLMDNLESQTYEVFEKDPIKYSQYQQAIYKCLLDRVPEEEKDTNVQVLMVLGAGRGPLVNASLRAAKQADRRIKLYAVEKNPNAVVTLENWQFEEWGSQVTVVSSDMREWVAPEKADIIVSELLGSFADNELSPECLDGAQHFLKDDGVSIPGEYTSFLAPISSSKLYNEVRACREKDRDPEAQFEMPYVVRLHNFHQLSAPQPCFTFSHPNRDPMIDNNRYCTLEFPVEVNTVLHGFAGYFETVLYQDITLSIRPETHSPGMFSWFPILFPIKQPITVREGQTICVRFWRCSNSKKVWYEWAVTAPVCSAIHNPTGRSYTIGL

Columns and labels:
[1] = target: AKT1-WT expressed in DLD-1-AKT1/2-/- cells (human), P31749; experiment: co-IP; DLD-1-AKT1/2-/- cells expressing AKT1-WT or R391K; serum-starved 16 h, then 100 nM insulin for 60 min; conditions: remark: other sources report otherwise
[2] = target: AKT1 (human (endogenous in MCF7)), P31749; experiment: co-IP; control and PRMT5-knockdown MCF7 cells; IB of WCLs and IP products; conditions: remark: other sources report otherwise
[3] = target: AKT1-R391K expressed in DLD-1-AKT1/2-/- cells (human) (UniProt P31749); experiment: co-IP; DLD-1-AKT1/2-/- cells expressing AKT1-WT or R391K; serum-starved 16 h, then 100 nM insulin for 60 min
[4] = target: protein arginine methyltransferase 5 (PRMT5) (human (endogenous in MCF7)) (UniProt O14744); experiment: co-IP; endogenous proteins, MCF7 whole cell lysates; PRMT5 immunoprecipitated, IgG as negative control

| binding [1] | binding [2] | binding [3] | binding [4] | Binder |
| --- | --- | --- | --- | --- |
| binds | binds | – | – | phosphoinositide-dependent kinase-1 (PDK1), O15530 1-556 (protein) MARTTSQLYDAVPIQSSVVLCSCPSPSMVRTQTESSTPPGIPGGSRQGPAMDGTAAEPRPGAGSLQHAQPPPQPRKKRPEDFKFGKILGEGSFSTVVLARELATSREYAIKILEKRHIIKENKVPYVTRERDVMSRLDHPFFVKLYFTFQDDEKLYFGLSYAKNGELLKYIRKIGSFDETCTRFYTAEIVSALEYLHGKGIIHRDLKPENILLNEDMHIQITDFGTAKVLSPESKQARANSFVGTAQYVSPELLTEKSACKSSDLWALGCIIYQLVAGLPPFRAGNEYLIFQKIIKLEYDFPEKFFPKARDLVEKLLVLDATKRLGCEEMEGYGPLKAHPFFESVTWENLHQQTPPKLTAYLPAMSEDDEDCYGNYDNLLSQFGCMQVSSSSSSHSLSASDTGLPQRSGSNIEQYIHDLDSNSFELDLQFSEDEKRLLLEKQAGGNPWHQFVENNLILKMGPVDKRKGLFARRRQLLLTEGPHLYYVDPVNKVLKGEIPWSQELRPEAKNFKTFFVHTPNRTYYLMDPSGNAHKWCRKIQEVWRQRYQSHPDAAVQ |
| – | – | binds | no binding | phosphoinositide-dependent kinase-1 (PDK1) (protein, UniProt O15530 1-556) MARTTSQLYDAVPIQSSVVLCSCPSPSMVRTQTESSTPPGIPGGSRQGPAMDGTAAEPRPGAGSLQHAQPPPQPRKKRPEDFKFGKILGEGSFSTVVLARELATSREYAIKILEKRHIIKENKVPYVTRERDVMSRLDHPFFVKLYFTFQDDEKLYFGLSYAKNGELLKYIRKIGSFDETCTRFYTAEIVSALEYLHGKGIIHRDLKPENILLNEDMHIQITDFGTAKVLSPESKQARANSFVGTAQYVSPELLTEKSACKSSDLWALGCIIYQLVAGLPPFRAGNEYLIFQKIIKLEYDFPEKFFPKARDLVEKLLVLDATKRLGCEEMEGYGPLKAHPFFESVTWENLHQQTPPKLTAYLPAMSEDDEDCYGNYDNLLSQFGCMQVSSSSSSHSLSASDTGLPQRSGSNIEQYIHDLDSNSFELDLQFSEDEKRLLLEKQAGGNPWHQFVENNLILKMGPVDKRKGLFARRRQLLLTEGPHLYYVDPVNKVLKGEIPWSQELRPEAKNFKTFFVHTPNRTYYLMDPSGNAHKWCRKIQEVWRQRYQSHPDAAVQ |
